According to patent publication US4388304A (Richter Gedeon Vegyeszeti Gyar RT, priority 1980, dated 1983):
Some peptides are written in HELM: one residue between dots, names in brackets for other building blocks, links after the first $.

Experiment: general procedure: solution-phase peptide synthesis; pentafluorophenyl active esters (OPfp); dicyclohexyl carbodiimide-pentafluorophe
Conditions: late stage modification step

Point of comparison: “PEPTIDE1{[Sar].R.V.Y.I.H.P.[Thr(Me)].[OMe]}$$$$V2.0”, step yield 83%. Against it:
- PEPTIDE1{[Sar].R.V.Y.I.H.P.I.[OMe]}$$$$V2.0 — higher, 98%
- PEPTIDE1{[HOAA].R.V.Y.I.H.P.I.[OMe]}$$$$V2.0 — lower, 82%
- (L-α-aminooxypropionic acid^1, isoleucine methyl ester^8)-angiotensin-II — higher, 89%
- (hydroxyacetic acid^1, threonine methyl ester^8)-angiotensin-II — higher, 92%
- PEPTIDE1{[Sar].R.V.Y.I.H.P.A.[OMe]}$$$$V2.0 — lower, 75%
- (hydroxyacetic acid^1, threonine/Me/methyl ester^8)-angiotensin-II — higher, 91%
